Source: patent publication US7488712B2 (Kyushu Institute of Technology, priority 2002, dated 2009)

test: general procedure: solution-phase peptide synthesis; HBTU/HOBt.H2O/triethylamine; HATU/DIEA for cyclization; settings: coupling step

Substance | step yield [% yield]
Boc-D-Tyr(Me)-L-Ile-D-Pro-L-Ab6-OTmse | 64
Boc-D-Tyr(Me)-L-Ile-L-Pro-L-Ab7-OBzl | 61
Boc-L-Ab7-D-Tyr(Me)-L-Ile-D-Pro-OBzl | 94
Boc-L-Ab8-D-Tyr(Me)-L-Ile-D-Pro-OBzl | 88
Boc-L-Ab9-D-Tyr(Me)-L-Ile-D-Pro-OBzl | 79

same assay, conditions: cyclisation step

Substance | cyclisation yield
cyclo(-L-A(OAt)6-D-Tyr(Me)-L-Ile-D-Pro-) | (27%)
cyclo(-L-Ab6-D-Tyr(Me)-L-Ile-D-Pro-) | (23%)
cyclo(-L-Ab7-D-Tyr(Me)-L-Ile-D-Pip-) | 39%
cyclo(-L-Ab7-D-Tyr(Me)-L-Ile-D-Pro-) | (64%)
cyclo(-L-Ab7-D-Tyr(Me)-L-Ile-L-Pip-) | 61%
cyclo(-L-Ab7-D-Tyr(Me)-L-Ile-L-Pro-) | (21%)
cyclo(-L-Ab8-D-Tyr(Me)-L-Ile-D-Pro-) | (55%)
cyclo(-L-Ab9-D-Tyr(Me)-L-Ile-D-Pro-) | (61%)

same assay, conditions: late stage modification step

Substance | step yield
H-D-Tyr(Me)-L-Ile-D-Pro-L-Ab6-OH.TFA | 96% yield
H-D-Tyr(Me)-L-Ile-L-Pro-L-Ab7-OH.TFA | 69% yield
H-L-Ab7-D-Tyr(Me)-L-Ile-D-Pro-OH.TFA | 97% yield
H-L-Ab8-D-Tyr(Me)-L-Ile-D-Pro-OH.TFA | 97% yield
H-L-Ab9-D-Tyr(Me)-L-Ile-D-Pro-OH.TFA | 90% yield
cyclo(-L-Am6(Ac)-D-Tyr(Me)-L-Ile-D-Pro-) | (79%)
cyclo(-L-Am7(Ac)-D-Tyr(Me)-L-Ile-D-Pip-) | (66%)
cyclo(-L-Am7(Ac)-D-Tyr(Me)-L-Ile-D-Pro-) | (89%)
cyclo(-L-Am7(Ac)-D-Tyr(Me)-L-Ile-L-Pip-) | (86%)
cyclo(-L-Am7(Ac)-D-Tyr(Me)-L-Ile-L-Pro-) | (76%)
cyclo(-L-Am7(S2Py)-D-Tyr(Me)-L-Ile-D-Pro-) | 38%
cyclo(-L-Am7(S4Py)-D-Tyr(Me)-L-Ile-D-Pro-) | 13%
cyclo(-L-Am7(SEll)-D-Tyr(Me)-L-Ile-D-Pro-) | 9.3%
cyclo(-L-Am7(SMEt)-D-Tyr(Me)-L-Ile-D-Pro-) | 11%
cyclo(-L-Am7(SMe)-D-Tyr(Me)-L-Ile-D-Pro-) | 65%
cyclo(-L-Am8(Ac)-D-Tyr(Me)-L-Ile-D-Pro-) | (84%)
cyclo(-L-Am9(Ac)-D-Tyr(Me)-L-Ile-D-Pro-) | (77%)

same assay, conditions: oxidative folding step

Substance | oxidative folding yield
cyclo(-L-Am6(-)-D-Tyr(Me)-L-Ile-D-Pro-SS-dimer (SCOP 302) | (78%)
cyclo(-L-Am7(-)-D-Tyr(Me)-L-Ile-D-Pip-(SS-dimer: SCOP 300) | (36%)
cyclo(-L-Am7(-)-D-Tyr(Me)-L-Ile-D-Pro-) SS-dimer (SCOP 304) | (89%)
cyclo(-L-Am7(-)-D-Tyr(Me)-L-Ile-L-Pip-(SS-dimer: SCOP 298) | (78%)
cyclo(-L-Am7(-)-D-Tyr(Me)-L-Ile-L-Pro-) (SS-dimer: SCOP 296) | (42%)
cyclo(-L-Am8(-)-D-Tyr(Me)-L-Ile-D-Pro-SS-dimer (SCOP 306) | (81%)
cyclo(-L-Am9(-)-D-Tyr(Me)-L-Ile-D-Pro-SS-dimer (SCOP 308) | (98%)
